Measurements published in PMC5996148.
Several values for one entry are separate records, joined by “and”; a condition that tells them apart may be missing. Equal entries are not always repeated. The list shows a part of the results.

What was measured:
Assay in all cases: protein microarray (ProtoArray v5.0), streptavidin-Alexa Fluor 647
Conditions in all cases: 3'-biotin; 20 mM Tris (pH 7.5), 5 mM MgCl2, 100 mM KCl, 0.1% Tween-20, A/T-rich and random oligonucleotide blockers; temperature not stated; high values mean tight binding
[1] = test system: Plasma membrane calcium-transporting ATPase 3 (human)
[2] = test system: Pleckstrin homology domain-containing family J member 1 (human)
Podoplanin (human) = test system: Podoplanin (human)
[3] = test system: Polyamine-modulated factor 1 (human)
[4] = test system: Pre-mRNA-splicing factor ISY1 homolog (human)
[5] = test system: Prenylated Rab acceptor protein 1 (human)
[6] = test system: Probable ATP-dependent RNA helicase DDX6 (human)
[7] = test system: Probable ergosterol biosynthetic protein 28 (human)
[8] = test system: Proteasome subunit alpha type-1 (human)
[9] = test system: Proteasome subunit beta type-2 (human)
Protein 71-7A (human) = test system: Protein 71-7A (human)
Protein BEAN (human) = test system: Protein BEAN (human)
Protein BEX5 (human) = test system: Protein BEX5 (human)
Protein DGCR6L (human) = test system: Protein DGCR6L (human)
Protein Dr1 (human) = test system: Protein Dr1 (human)
Protein FAM46B (human) = test system: Protein FAM46B (human)
Protein FAM63B (human) = test system: Protein FAM63B (human)
Protein FAM76B (human) = test system: Protein FAM76B (human)
Protein NOXP20 (human) = test system: Protein NOXP20 (human)
Protein Niban (human) = test system: Protein Niban (human)

## GGTGACAGGGGTATGGGGAGGGG [G4-2 biotinylated (Ct1)]
[1]
  binding signal: -0.361 z-score
[2]
  binding signal: -0.411 z-score
Podoplanin (human)
  binding signal: -0.393 z-score and -0.389 z-score
[3]
  binding signal: -0.398 z-score
[4]
  binding signal: -0.404 z-score
[5]
  binding signal: -0.381 z-score
[6]
  binding signal: 6.79 z-score
[7]
  binding signal: -0.402 z-score
[8]
  binding signal: -0.371 z-score
[9]
  binding signal: -0.396 z-score
Protein 71-7A (human)
  binding signal: -0.37 z-score
Protein BEAN (human)
  binding signal: -0.398 z-score
Protein BEX5 (human)
  binding signal: -0.398 z-score
Protein DGCR6L (human)
  binding signal: -0.392 z-score
Protein Dr1 (human)
  binding signal: -0.398 z-score
Protein FAM46B (human)
  binding signal: -0.372 z-score
Protein FAM63B (human)
  binding signal: -0.402 z-score
Protein FAM76B (human)
  binding signal: 4.14 z-score
Protein NOXP20 (human)
  binding signal: -0.389 z-score
Protein Niban (human)
  binding signal: -0.381 z-score
